In the supplement of paper PMC6418307:
Single values of this set are uncertain.

Test system: primary mouse cortical neurons
Assay: cell health score (luciferase spike-in reads / total reads per well) (fraction); higher = fewer cellular reads, worse cell health / toxicity
Conditions: treatment time 24 h
[1] = 0.01 µM, sex of neuron culture: Female
[2] = 0.01 µM, sex of neuron culture: Male
[3] = 0.1 µM, sex of neuron culture: Female
[4] = 0.1 µM, sex of neuron culture: Male
[5] = 1 µM, sex of neuron culture: Female
[6] = 1 µM, sex of neuron culture: Male
[7] = 10 µM, sex of neuron culture: Female
[8] = 10 µM, sex of neuron culture: Male

Row | SMILES | cell health score [1] | cell health score [2] | cell health score [3] | cell health score [4] | cell health score [5] | cell health score [6] | cell health score [7] | cell health score [8]
1 | CNC(=O)O/N=C/C(C)(C)SC [Aldicarb] | 0.000611 | 0.000685 | 0.000832 | 0.00146 | 0.000803 | 0.000495 | 0.00104 | 0.00125
2 | CN(C)C(=O)Nc1cccc(C(F)(F)F)c1 [Fluometuron] | 0.00034 | 0.000844 | 0.000931 | 0.000802 | 0.000952 | 0.000658 | 0.00111 | 0.000687
3 | C#CCN1C(=O)COc2cc(F)c(N3C(=O)C4=C(CCCC4)C3=O)cc21 [Flumioxazin] | 0.000499 | 0.000872 | 0.000693 | 0.000651 | 0.000645 | 0.00045 | 0.00107 | 0.000352
4 | CCCCCOC(=O)COc1cc(N2C(=O)C3=C(CCCC3)C2=O)c(F)cc1Cl [Flumiclorac-pentyl] | 0.000559 | 0.000738 | 0.00111 | 0.000867 | 0.00081 | 0.000607 | 0.00137 | 0.000582
5 | CN1[C@@H]2C[C@@H](OC(=O)[C@H](CO)c3ccccc3)C[C@H]1[C@@H]1O[C@@H]12 [Scopolamine] | 0.000624 | 0.000635 | 0.00076 | 0.000891 | 0.000661 | 0.000772 | 0.000712 | 0.00156
6 | CC/C(=N\OC/C=C/Cl)C1=C(O)CC(C2CCOCC2)CC1=O (stereo not given) [Tepraloxydim] | 0.000477 | 0.000834 | 0.00101 | 0.000801 | 0.000613 | 0.000704 | 0.000962 | 0.000425
7 | CNC(=O)N(C)c1nnc(C(C)(C)C)s1 [Tebuthiuron] | 0.000542 | 0.000451 | 0.0007 | 0.000544 | 0.000536 | 0.00055 | 0.000731 | 0.000445
8 | COCc1cnc(C2=NC(C)(C(C)C)C(=O)N2)c(C(=O)O)c1 (stereo not given) [Imazamox] | 0.000659 | 0.000696 | 0.000727 | 0.000628 | 0.000874 | 0.000926 | 0.000957 | 0.000533
9 | COc1ccc(C[C@H](N)C(=O)N[C@H]2[C@@H](O)[C@H](n3cnc4c(N(C)C)ncnc43)O[C@@H]2CO)cc1 [Puromycin] | 0.000471 | 0.000825 | 0.000646 | 0.00076 | 0.00627 | 0.00376 | 0.0016 | 0.0062
10 | CC(COc1ccc(Oc2ccccc2)cc1)Oc1ccccn1 (stereo not given) [Pyriproxyfen] | 0.000495 | 0.000702 | 0.000698 | 0.000664 | 0.000782 | 0.000482 | 0.0007 | 0.000468

Filtered by structure, those above containing a Cl atom (two)
Row | SMILES | cell health score [1] | cell health score [2] | cell health score [3] | cell health score [4] | cell health score [5] | cell health score [6] | cell health score [7] | cell health score [8]
4 | CCCCCOC(=O)COc1cc(N2C(=O)C3=C(CCCC3)C2=O)c(F)cc1Cl [Flumiclorac-pentyl] | 0.000559 | 0.000738 | 0.00111 | 0.000867 | 0.00081 | 0.000607 | 0.00137 | 0.000582
6 | CC/C(=N\OC/C=C/Cl)C1=C(O)CC(C2CCOCC2)CC1=O (stereo not given) [Tepraloxydim] | 0.000477 | 0.000834 | 0.00101 | 0.000801 | 0.000613 | 0.000704 | 0.000962 | 0.000425
